Source: PubChem BioAssay AID2685 (National Center for Advancing Translational Sciences (NCATS), 2010)
Some of the results follow. Further columns of the screen follow, without active or inactive calls. Most of these compounds were active or inconclusive in the main read-out, so they are no random draw. Potencies come from curve fits of mixed quality, noted in brackets.

Assay: qHTS Assay for Lipid Storage Modulators in Drosophila S3 Cells;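 as to cell number change: cells counted by Cell Tracker Red CMTPX staining in the red channel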
Settings: BODIPY lipid droplet fluorescence, 18-24 h; for cell number change: measured here: cell count max response, cells fed with added oleic acid
How it was run: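 Drosophila S3 cells loaded with oleic acid (400 uM, as added) and compounds at several concentrations; lipid droplets imaged by 488-nm laser-scanning cytometry, 500–530 nm intensity and object ratio to cell channel. Percent activity normalized to 20 uM Triacsin C.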

[1] = measured here: lipid fluorescence (Fed channel) AC50, cells fed with added oleic acid
[2] = measured here: cell number channel AC50, cells fed with added oleic acid

| Compound | cell number change [%] | AC50 [1] | AC50 [2] |
| --- | --- | --- | --- |
| CCOC(=O)c1sc2nccc(OC)c2c1N=CNOC | 0.652 |  |  |
| CCCC(=O)Nc1ccc(Br)cn1 | -1.11 | 29.1 µM [falling, partial curve] |  |
| Nc1nnc(CSCc2cccc(Br)c2)s1 | -26.3 | 1.3 µM [falling, partial curve, poor fit] |  |
| COc1ccc(NC(=O)CN(C)C(=O)CCNC(=O)Nc2ccccc2)cc1 |  | 14.6 µM [rising, single point] |  |
| Cc1ccc(-c2nc(-c3ccccn3)no2)cc1Cl | -25.5 | 16.4 µM [rising, partial curve] |  |
| COCCNC(=O)CC(=O)N/N=C/c1cccc(C(=O)OC)c1 | 22.6 | 29.1 µM [rising, single point] |  |
| CCCCNCCOCCOc1ccc(Cl)cc1Br |  | 6.51 µM [rising, single point] | 0.164 µM [rising, full curve, poor fit] |
| Cc1nnc(SCC(=O)Nc2ccccc2F)n1-c1ccc(F)cc1 | 18.6 | 0.0291 µM [rising, full curve, poor fit] |  |
| COC(=O)Cn1c(=NC(=O)c2cc(OC)c(OC)c(OC)c2)sc2cc(OC)ccc21 | 57.9 | 5.17 µM [rising, full curve] | 8.2 µM [rising, partial curve] |
| O=C(/C=C/c1ccc([N+](=O)[O-])cc1)/C=C/c1ccco1 | 12.9 | 11.6 µM [falling, single point] |  |
| CCOc1ccc(NS(=O)(=O)c2ccc(C(=O)NNC(=O)c3ccccc3O)cc2)cc1 | -11.9 | 3.66 µM [falling, single point] |  |
| CN1C(=O)CC(N2CCN(C(c3ccccc3)c3ccccc3)CC2)C1=O (stereo not given) | 4.79 | 20.6 µM [falling, single point] |  |
| C/C(=N\NC(=O)c1ccc(NS(=O)(=O)c2cccs2)cc1)c1cccs1 | -9.61 | 0.651 µM [falling, full curve] | 0.731 µM [falling, single point] |
| COCCSc1nc2c(c(=O)[nH]c(=O)n2C)n1CCC(C)C | -7.19 | 0.164 µM [falling, full curve, poor fit] |  |
| O=c1c(C=Nc2cccc(C(F)(F)F)c2)c[nH]n1-c1cccc(Cl)n1 | -8.65 | 0.651 µM [rising, full curve] |  |
| COc1ccc(NC(=O)CNc2cccc(C#N)c2)cc1Cl | 6.43 | 6.51 µM [rising, single point] |  |
| CCOC(=O)CSc1nnc(NC(=O)c2ccc3c(c2)OCO3)s1 | 19.9 | 0.58 µM [rising, single point] |  |
| COc1cccc(C2c3[nH]c4ccccc4c3CCN2Cc2cnn(C)c2)c1 (stereo not given) |  | 7.31 µM [falling, single point] |  |
| COc1ccc2c(c1)NC1(O)c3ccccc3C(=O)C21O (stereo not given) | -5.28 | 0.184 µM [falling, full curve, poor fit] |  |
| Clc1ccc2[nH]cc(-c3nnnn3-c3ccc4ccccc4c3)c2c1 | 74.9 | 2.31 µM [rising, partial curve] | 9.2 µM [rising, partial curve] |

Among those listed so far, five have a Cl atom.

| Compound | cell number change [%] | AC50 [1] | AC50 [2] |
| --- | --- | --- | --- |
| Cc1ccc(-c2nc(-c3ccccn3)no2)cc1Cl | -25.5 | 16.4 µM [rising, partial curve] |  |
| CCCCNCCOCCOc1ccc(Cl)cc1Br |  | 6.51 µM [rising, single point] | 0.164 µM [rising, full curve, poor fit] |
| O=c1c(C=Nc2cccc(C(F)(F)F)c2)c[nH]n1-c1cccc(Cl)n1 | -8.65 | 0.651 µM [rising, full curve] |  |
| COc1ccc(NC(=O)CNc2cccc(C#N)c2)cc1Cl | 6.43 | 6.51 µM [rising, single point] |  |
| Clc1ccc2[nH]cc(-c3nnnn3-c3ccc4ccccc4c3)c2c1 | 74.9 | 2.31 µM [rising, partial curve] | 9.2 µM [rising, partial curve] |

(list continues)

| Compound | cell number change [%] | AC50 [1] | AC50 [2] |
| --- | --- | --- | --- |
| O=C(CN1CCCCCC1)Nc1ccc([N+](=O)[O-])cc1Br | 7.98 |  |  |
| O=C(NCC1CCCO1)c1nn2c(C(F)(F)F)cc(-c3cccs3)nc2c1Br (stereo not given) | 15 |  |  |
| O=C(Nc1c2c(nn1-c1ccccc1)CS(=O)(=O)C2)c1ccccc1Br | -11.8 | 0.731 µM [rising, single point] |  |
| CC1=[N+](C)c2c(ccc3cccnc23)C1(C)C | -50.5 | 2.31 µM [falling, full curve] | 4.11 µM [falling, full curve] |
| O=C(Nc1ccccc1)c1ccc(NCc2ccco2)c(S(=O)(=O)N2CCOCC2)c1 |  |  | 6.51 µM [rising, single point] |
| N/C(=N\S(=O)(=O)c1cc(C(F)(F)F)cc(C(F)(F)F)c1)c1ccccc1 | -49.4 | 4.61 µM [falling, partial curve] | 5.17 µM [falling, partial curve] |
| CCOC(=O)N1CCN(C(=O)c2noc3c2COc2ccccc2-3)CC1 | -1.42 |  |  |
| CCOC(=O)CSc1nnc(CCCCCN2C(=O)c3cccc4cccc(c34)C2=O)o1 |  | 18.4 µM [rising, partial curve] | 0.731 µM [rising, single point] |
| COc1cccc(CNC(=O)c2cccnc2Sc2ccc(C)cc2C)c1 | 16.4 |  |  |
| Cc1ccc(NC(=O)C(OC(=O)c2ccc(NC(N)=O)cc2)c2ccccc2)cc1Cl (stereo not given) | -41.4 | 29.1 µM [falling, single point] | 29.1 µM [falling, single point] |
| COc1ccccc1N=Nc1c(C)[nH]n(-c2ccccc2)c1=O |  | 13 µM [falling, partial curve] |  |
| N#CCCNS(=O)(=O)c1ccc(C(=O)OCCCOC(=O)c2ccc(S(=O)(=O)NCCC#N)cc2)cc1 | 14.1 | 29.1 µM [rising, single point] |  |
| CCN(CC)CCNC(=O)C(=O)Nc1cc2c3c(c1)CCN3C(=O)CC2 | -30.6 |  |  |
| Cc1ccc(NC(=O)c2nnn(CC(=O)Nc3ccccc3)c2N)cc1C |  |  | 1.16 µM [rising, partial curve] |
| CCOc1ccc(C(=O)Nc2c(C(N)=O)oc3ccccc23)cc1 | -26.9 | 29.1 µM [falling, single point] |  |
| COc1ccc2c(c1)CCc1c(C(=O)N3CCCCCC3)noc1-2 | -22.6 |  |  |
| CCN(CC(=O)Nc1c(F)cccc1F)C(=O)c1cc2ccccc2oc1=O | -13.8 | 16.4 µM [rising, single point] |  |
| Cc1cc2c(cc1C)CSC(c1c(O)ccc3ccccc13)SC2 | -41.7 | 29.1 µM [falling, single point] | 29.1 µM [falling, single point] |
| COc1cc(/C=C/C(=O)OCC(=O)NCc2ccco2)ccc1O | 32.9 |  | 13 µM [rising, single point] |
| O=C(c1ccncc1)N1C2C=CC(C2)C1(C(F)(F)F)C(F)(F)F (stereo not given) | 38 |  | 29.1 µM [rising, single point] |

| Compound | cell number change [%] | AC50 [1] | AC50 [2] |
| --- | --- | --- | --- |
| COc1cccc(CN2CCNC(=O)C2CC(=O)N(C)CC2CCOCC2)c1OC (stereo not given) | 19.4 |  |  |
| O=C(OC(C(=O)NCc1ccco1)C(OC(=O)c1ccccc1)C(=O)NCc1ccco1)c1ccccc1 (stereo not given) | -5.31 | 0.058 µM [falling, full curve, poor fit] |  |
| Cn1cnnc1SCNC(=O)C(F)(F)F | -5.85 | 0.517 µM [falling, full curve] |  |
| Cc1nc2ccccn2c1C(=O)N/N=C/c1ccc(F)cc1 |  | 29.1 µM [rising, partial curve, poor fit] |  |
| COCCCn1c(C(=O)NCCC2=CCCCC2)cc2c(=O)n3cccc(C)c3nc21 | 6.87 | 1.46 µM [falling, full curve] |  |
| CC(=O)c1ccc(C(=O)Nc2ccc(N3CCOCC3)cc2)cc1 | -14.5 |  |  |
| Cn1nc(C(F)(F)F)c(C#N)c1N1CCN(c2ccccn2)CC1 | 5.97 |  | 4.11 µM [rising, single point] |
| Cc1ccc(CC(=O)N2CCN(S(=O)(=O)c3ccccc3)CC2)cc1C |  | 29.1 µM [rising, single point] |  |
| CC(=O)Nc1cccc(NC(=O)CSc2ncc(-c3ccccc3)[nH]2)c1 | 27.5 | 6.51 µM [rising, partial curve] | 2.06 µM [rising, partial curve, poor fit] |
| COc1ccc(CCNC(=O)COC(=O)Cn2cnc3c2c(=O)n(C)c(=O)n3C)cc1 | 5.26 | 29.1 µM [falling, single point] |  |
| Fc1ccc(CNC(=S)Nc2ccc(Cl)cc2Cl)cc1 | -10 | 29.1 µM [falling, single point] |  |
| Cc1cccc(N(CC(=O)NC2CCCC2)C(=O)CS(=O)CC(=O)Nc2ccc3c(c2)OCO3)c1 (stereo not given) | 31.8 | 0.00461 µM [falling, full curve, poor fit] | 4.11 µM [rising, partial curve, poor fit] |
| CCN(CC)S(=O)(=O)c1ccc(C(=O)Nc2nnc(CSC)o2)cc1 | -7.86 |  | 0.103 µM [falling, full curve, poor fit] |
| CC1CC(C)(C)CC2(C1)NC(=S)N(c1ccccc1)N2 (stereo not given) | 47.1 | 6.51 µM [rising, single point] | 6.51 µM [rising, full curve] |
| O=C(c1ccccc1Cc1ccccc1)N1CCN(S(=O)(=O)c2ccccc2F)CC1 | 29.6 | 3.66 µM [falling, partial curve] |  |
| NS(=O)(=O)c1cccc(NC(=S)NCc2ccc3c(c2)OCO3)c1 | 32.8 | 7.31 µM [rising, partial curve] | 8.2 µM [rising, partial curve] |
| COc1ccccc1NC(=O)C1=C(C)NC(=O)NC1c1cc(C)cs1 (stereo not given) | -38.7 | 2.31 µM [falling, partial curve, poor fit] | 0.651 µM [falling, full curve] |
| Cc1cc(NC(=O)CSc2nnc(NCc3ccco3)s2)no1 | -7.65 | 29.1 µM [falling, single point] |  |
| Cc1oc(-c2ccccc2F)nc1CS(=O)(=O)CC(=O)NCCCN1CCN(C)CC1 |  | 29.1 µM [falling, partial curve] |  |
| CCOc1cc(C=O)ccc1OCCSc1ccc(C)cc1 | -0.932 | 6.51 µM [falling, single point] |  |

No new results follow: 2 of the compounds above.

| Compound | cell number change [%] | AC50 [1] | AC50 [2] |
| --- | --- | --- | --- |
| Cn1cnnc1SCNC(=O)C(F)(F)F | -5.85 | 0.517 µM [falling, full curve] |  |
| Cc1nc2ccccn2c1C(=O)N/N=C/c1ccc(F)cc1 |  | 29.1 µM [rising, partial curve, poor fit] |  |
